Experimental data taken from the supplement of paper PMC12889115.
The list shows a part of the results. Values are raw readings; no control value is given beside them.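 Primary screen: polymyxin B was added at a level permeabilizing Salmonella outer membranes while sparing inner membranes. DMSO wells, both with and without polymyxin B, established maximum growth. Plate-to-plate variation meant each plate was ranked on its own, and the lowest-OD600 compounds were selected as hits.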

System: Salmonella enterica serovar Typhimurium SL1344
Assay: bacterial growth OD600 after 18 h with compound and polymyxin B; higher = more bacterial growth (less inhibition)
Settings: 50 µM, Mueller-Hinton broth

Row | SMILES | bacterial growth OD600 (polymyxin B 0.75 µg/mL) | bacterial growth OD600 (polymyxin B 1 µg/mL)
1 | O=C(CCN1CCCO1)N1CCCC(CCc2cccc(F)c2)C1 (stereo not given) | 0.521 | –
2 | C#CCN(C(=O)CCC1(Cc2ccc(Cl)cc2)CCC(=O)N1)C1CCCCC1 (stereo not given) | 0.584 | –
3 | CCc1ccc(CN(C)C(=O)c2cc(Cn3ccnc3C(C)C)[nH]n2)nc1 | – | 1.01
4 | COCC(=O)Nc1cccc(-c2nc(CNC(=O)CCc3ccc(OC)c(OC)c3)c(C)o2)c1 | 0.922 | –
5 | CC(C)=CC(=O)NC1CCCN(Cc2ccc(Cl)cc2)C1 (stereo not given) | – | 1.1
6 | Cc1oc(-c2cc(F)ccc2F)nc1CN(Cc1cnn(C)c1)C(C)C | – | 0.899
7 | Cc1nc(N2CCCC(C(=O)NCc3cccc(Cl)c3)C2)nc2cc(S(C)(=O)=O)ccc12 (stereo not given) | 0.008 | –
8 | Cc1nn(C)c(C)c1CN(C(=O)c1ccc(-n2cc(NC(=O)c3cccnc3)cn2)cc1)C1CC1 | 0.79 | –
9 | O=C(Nc1cccc(-c2cscn2)c1)C1CCN(CCc2ccccc2)CC1 | – | 1.17
10 | CCc1ccc(CN2CCC(C(Cc3ccccc3)N(CC)C(=O)C3CCOCC3)CC2)cc1 (stereo not given) | 0.744 | –
11 | COc1ccc(CN2CCN(Cc3ccc(C)cc3)C(CCO)C2)cc1 (stereo not given) | – | 0.917
12 | O=C(Nc1ccc(-c2cscn2)cc1)C1CCCN(C(=O)c2cccs2)C1 (stereo not given) | – | 1.04
13 | CO[C@H]1[C@H](NC(=O)c2ccccn2)c2ccccc2C12CCN(C(=O)CCc1c(C)noc1C)CC2 | 0.888 | –
14 | CCC(C)CN1CCC(Oc2ccc(C(=O)NCCOC)cc2Cl)CC1 (stereo not given) | – | 1.22
15 | COCc1noc(-c2ccc(N(C)Cc3cn(C)nc3C)nc2)n1 | – | 0.961
16 | CN(CCc1ccccn1)Cc1ccc2c(c1)CN(C(=O)CC(c1ccccc1)c1ccco1)CCO2 (stereo not given) | 0.799 | –
17 | O=C(c1ccsc1)N1CCOc2ccc(C(O)C(c3ccccc3)c3ccccc3)cc2C1 (stereo not given) | 0.602 | –
18 | Cc1ccsc1C(=O)N1CCc2onc(-c3ccc(Cl)cc3)c2C1 | 0.452 | –
19 | CCOC(=O)C1(Cc2ccc(F)cc2F)CCCN(C(=O)c2ccc(OC)nc2OC)C1 (stereo not given) | – | 0.931
20 | O=C(Nc1cccc(N2CCC(NCC(c3ccccc3)c3ccccc3)CC2)c1)c1ccncc1 | 0.762 | –
21 | CCC1CN(CCNC(=O)CCCc2cccs2)Cc2cc(OC)ccc2O1 (stereo not given) | 0.755 | –
22 | Cc1cc(C(=O)N(Cc2ccncc2)Cc2cccc(OCCc3ccc(F)cc3)c2)n(C)n1 | 0 | –
23 | O=C(NC1CCCc2ccccc21)c1ccc(OC2CCN(C(=O)C3CC3)CC2)cc1 (stereo not given) | – | 1.19
24 | CCc1ccc(CN2CCC(Oc3ccc(C(=O)NCCOC)cc3Cl)CC2)o1 | – | 0.823
25 | COc1cc(C(=O)N(C)Cc2ccc(C)cc2)ccc1OC1CCN(C(C)=O)CC1 | – | 0.847
26 | O=C(Cc1ccc2c(c1)OCO2)N1CCOc2ccc(CN3CCN(c4ccccc4)CC3)cc2C1 | 0.743 | –
27 | Cc1cc(C)c(C(=O)N2CCC3(CCCN(Cc4ccccc4F)C3)C2)c(=O)[nH]1 (stereo not given) | – | 0.899
28 | COc1cccc(-c2cccc(NC(=O)C3CCN(CCC(C)C)CC3)c2)c1 | – | 0.864
29 | O=C(C1CC1)N1CCC2(CCCN(Cc3ccc(F)cc3)C2=O)C1 (stereo not given) | – | 1.04
30 | CN(Cc1n[nH]c2c1CCCC2)C(=O)COc1ccc(N(C)Cc2ccc(F)cc2)nn1 | 0.916 | –

Taken from above:
bacterial growth OD600 (polymyxin B 0.75 µg/mL), CN(Cc1n[nH]c2c1CCCC2)C(=O)COc1ccc(N(C)Cc2ccc(F)cc2)nn1 reads 0.916
bacterial growth OD600 (polymyxin B 1 µg/mL), Cc1oc(-c2cc(F)ccc2F)nc1CN(Cc1cnn(C)c1)C(C)C reads 0.899
